Data taken from PMC5689601.
Results are given in words; binding and its absence hold for the method and conditions named. In cells and extracts the contact can be indirect. A result given as binding can be weak or reduced; the word gives no strength.

Target: enhancer of zeste homolog 2 (EZH2) (rat (endogenous in PC 12))
Assay: co-IP; lysates of PC 12 cells, untreated or treated with Pb (lead acetate); lysis and IP buffer 50 mM Tris pH 7.4, 150 mM NaCl, 0.1 % CHAPS, 100 uM deferoxamine, 1 mM EDTA (IP buffer with 0.1 mg/mL BSA); 5 ug anti-H3K27me3, anti-EZH2 or unimmune IgG overnight at 4 C, protein A/G beads; Western blot with anti-EZH2, anti-Vav1, anti-EED, anti-H3K27me3

binding: binds
B1: Vav1 (protein, UniProt P54100 1-843)
chain: MELWRQCTHWLIQCRVLPPSHRVTWEGAQVCELAQALRDGVLLCQLLNNLLPHAINLREVNLRPQMSQFLCLKNIRTFLSTCCEKFGLKRSELFEAFDLFDVQDFGKVIYTLSALSWTPIAQNKGIMPFPTEDSALGDEDIYSGLSDQIDDTAEEDEDLYDCVENEEAEGDEIYEDLMRSESVPTPPKMTEYDKRCCCLREIQQTEEKYTDTLGSIQQHFMKPLQRFLKPQDMETIFVNIEELLSVHTHFLKELKDALSGPGATMLYQVFIKYKERFLVYGRYCSQVESAIKHLDQVATAREDVQMKLEECSQRANNGRFTLRDLLMVPMQRVLKYHLLLQELVKHTQDTTEKENLRLALDAMRDLAQCVNEVKRDNETLRQITNFQLSIENLDQSLANYGRPKIDGELKITSVERRSKTDRYAFLLDKALLICKRRGDSYDLKASVNLHSFQVRDDSSGERDNKKWSHMFLLIEDQGAQGYELFFKTRELKKKWMEQFEMAISNIYPENATANGHDFQMFSFEETTSCKACQMLLRGTFYQGYRCYRCRAPAHKECLGRVPPCGRQDFSGTMKKDKLHRRAQDKKRNELGLPKMEVCQEYYGIPPPPGAFGPFLRLNPGDIVELTKAEAEHTWWEGRNTATNEVGWFPCNRVRPYVHGPPQDLSVHLWYAGPMERAGAEGILTNRSDGTYLVRQRVKDTAEFAISIKYNVEVKHIKIMTSEGLYRITEKKAFRGLPELVEFYQQNSLKDCFKSLDTTLQFPYKEPERRAINKPPVGSTKYFGTAKARYDFCARDRSELSLKEGDIIKILNKKGQQGWWRGEIYGRIGWFPSNYVEEDYSEYC
